Data as given in PubChem BioAssay AID1259254 (NCATS, 2017).
The whole screen tested about 59,000 reagents; this is a random part of them. Over the whole deposit, about 1,550 (2.6%) are marked active. 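G2 share is only a proxy for re-replication; each gene was hit by three separate siRNAs, and active genes were retested.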 Raw values vary from plate to plate and are shown uncorrected. Reagents against one gene are numbered here. Not stated in the record: the amount of reagent.

Aim: 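Finding genes that stop cells copying their DNA twice in one cycle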 (primary screen)
System: human HCT116 colorectal cancer cells
Reagent: single siRNA against human genes
Time to read-out: 3 days
Read-out: 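Nuclei stained with Hoechst and imaged; cell-cycle phase assigned by DNA content; G2 share scaled per plate, non-targeting siRNA 0%, GMNN siRNA 100%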
Scale: G2 robust z-score and G2 cells, % of GMNN control: higher = more G2 cells, more excess DNA replication; raw share of cells in G2: higher = larger share of cells with G2 DNA content
Hit rule: 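An siRNA counts as active if its G2 robust z-score lies at least 5 MADs above the screen median; here such calls match roughly 38% of GMNN control or more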

no.	gene symbol	siRNA no.	G2 robust z-score	G2 cells, % of GMNN control	raw share of cells in G2 (%)	call
1	KDR	1	-0.375	0.331	5.72	inactive
2	KDR	2	1.11	10.8	9.05	inactive
3	KDR	3	0.00833	3.03	5.09	inactive
4	TMEM87B	1	-0.113	2.17	6.68	inactive
5	TMEM87B	2	-0.713	-2.05	4.09	inactive
6	TMEM87B	3	0.873	9.11	7.92	inactive
7	LINC00687	1	-0.0032	2.94	4.66	inactive
8	LINC00687	2	-0.75	-2.31	2.06	inactive
9	LINC00687	3	-0.46	-0.267	3.5	inactive
10	NINJ2	1	3.06	24.5	11.3	inactive
11	NINJ2	2	2.49	20.5	13.3	inactive
12	NINJ2	3	3.65	28.6	16.8	inactive
13	COL9A1	1	0.745	8.21	6.74	inactive
14	COL9A1	2	0.851	8.96	9.5	inactive
15	COL9A1	3	-0.743	-2.26	3.26	inactive
16	CFAP299	1	0.0877	3.58	4.88	inactive
17	CFAP299	2	1.6	14.2	8.01	inactive
18	CFAP299	3	-0.548	-0.886	2.91	inactive
19	PROSER2	1	0.514	6.58	5.3	inactive
20	PROSER2	2	-0.0755	2.44	4.46	inactive
21	PROSER2	3	-0.345	0.537	3.31	inactive
22	ELP5	1	-0.508	-0.608	4.18	inactive
23	ELP5	2	-0.176	1.73	4.69	inactive
24	ELP5	3	-0.486	-0.454	3.14	inactive
25	WWC2-AS2	1	-0.447	-0.175	3.77	inactive
26	WWC2-AS2	2	0.684	7.78	5.32	inactive
27	WWC2-AS2	3	0.0635	3.41	4.26	inactive
28	RAB33A	1	-0.745	-2.27	4.47	inactive
29	RAB33A	2	-0.485	-0.442	4.34	inactive
30	RAB33A	3	1.51	13.6	9.58	inactive
31	RUSF1	1	0.0161	3.08	5.92	inactive
32	RUSF1	2	0.486	6.38	7.47	inactive
33	RUSF1	3	0.0837	3.56	3.64	inactive
34	GRIK2	1	0.413	5.88	7.43	inactive
35	GRIK2	2	-1.62	-8.41	1.94	inactive
36	GRIK2	3	-1.1	-4.75	2.52	inactive
37	YBX2	1	2.84	22.9	16.4	inactive
38	YBX2	2	-0.752	-2.33	3.38	inactive
39	YBX2	3	0.637	7.45	6.66	inactive
40	FAM222A	1	-1.14	-5.07	1.93	inactive
41	FAM222A	2	-0.518	-0.677	2.79	inactive
42	FAM222A	3	-0.107	2.22	3.63	inactive
43	FAR2	1	-0.36	0.435	6.62	inactive
44	FAR2	2	1.5	13.5	9.97	inactive
45	FAR2	3	0.172	4.18	5.94	inactive
46	CMBL	1	2.79	22.6	13	inactive
47	CMBL	2	-0.538	-0.82	5.57	inactive
48	CMBL	3	-0.0738	2.45	5.73	inactive
